Measurements as given in article PMC3672107.
Results are given in words; binding and its absence hold for the method and conditions named. Binding seen in cells or lysates may run through a third protein. Some binding calls cover weakened binding; strength is not graded here. Where a sequence is shown, tags or fusion partners need not be part of it.

Protein sequences, listed by entry. Tags and fused reporters are not part of them. Residues count along the entry.
UniProt P56817, residues 46-501: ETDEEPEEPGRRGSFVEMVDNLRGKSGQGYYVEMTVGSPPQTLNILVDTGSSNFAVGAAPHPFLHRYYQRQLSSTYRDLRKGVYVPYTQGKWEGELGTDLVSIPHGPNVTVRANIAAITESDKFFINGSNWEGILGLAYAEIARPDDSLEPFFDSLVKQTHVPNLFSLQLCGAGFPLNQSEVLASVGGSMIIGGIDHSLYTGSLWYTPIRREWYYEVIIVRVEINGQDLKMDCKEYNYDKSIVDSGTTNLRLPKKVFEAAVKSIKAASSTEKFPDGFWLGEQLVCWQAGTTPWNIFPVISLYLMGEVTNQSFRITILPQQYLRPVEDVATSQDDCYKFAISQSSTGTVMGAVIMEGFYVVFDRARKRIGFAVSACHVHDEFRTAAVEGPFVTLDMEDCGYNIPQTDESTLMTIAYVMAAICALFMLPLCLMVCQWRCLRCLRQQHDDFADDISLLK
UniProt P05067, residues 18-770: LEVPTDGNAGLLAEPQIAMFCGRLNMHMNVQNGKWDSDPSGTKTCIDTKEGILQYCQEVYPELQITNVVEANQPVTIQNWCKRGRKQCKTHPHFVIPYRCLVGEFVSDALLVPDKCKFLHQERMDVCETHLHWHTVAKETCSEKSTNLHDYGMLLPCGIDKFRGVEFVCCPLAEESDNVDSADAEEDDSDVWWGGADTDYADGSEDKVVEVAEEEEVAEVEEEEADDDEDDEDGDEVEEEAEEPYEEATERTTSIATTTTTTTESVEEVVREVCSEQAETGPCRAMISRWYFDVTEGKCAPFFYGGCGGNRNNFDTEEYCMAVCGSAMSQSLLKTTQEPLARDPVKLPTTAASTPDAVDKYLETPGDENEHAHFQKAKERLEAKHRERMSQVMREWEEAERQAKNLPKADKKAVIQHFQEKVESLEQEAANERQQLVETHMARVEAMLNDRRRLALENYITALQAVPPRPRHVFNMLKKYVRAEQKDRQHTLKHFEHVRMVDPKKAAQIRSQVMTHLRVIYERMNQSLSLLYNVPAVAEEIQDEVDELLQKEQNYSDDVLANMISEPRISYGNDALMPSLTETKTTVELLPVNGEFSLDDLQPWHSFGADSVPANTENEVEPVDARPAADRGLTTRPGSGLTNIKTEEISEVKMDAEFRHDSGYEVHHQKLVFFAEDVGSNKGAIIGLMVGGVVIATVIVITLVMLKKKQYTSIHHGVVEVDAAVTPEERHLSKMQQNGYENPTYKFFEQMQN

Tests used:
BACE1 with a GFP tag = BACE1 with a GFP tag (UniProt P56817); test: co-IP; HEK293T cells transfected with LRRTM3-V5 and BACE1-GFP; lysed in IP buffer (150mM NaCl, 50mM Tris pH 7.5, 0.1% Triton); 1 ug of anti-V5, anti-GFP or CT20 antibody on Dynabeads Protein G, 30 minutes with the lysate, extensively washed; Western blot of the eluted immunocomplexes
[1] = molecular target: Amyloid precursor protein (APP), endogenous in HEK293T cells (human (endogenous in HEK293T)) (UniProt P05067); test: as above

binding (BACE1 with a GFP tag): binds
binding [1]: binds
B1: Leucine rich repeat transmembrane protein 3 (LRRTM3) with a V5 tag (protein, UniProt Q86VH5-1 31-581)
chain: ERGCPKGCRCEGKMVYCESQKLQEIPSSISAGCLGLSLRYNSLQKLKYNQFKGLNQLTWLYLDHNHISNIDENAFNGIRRLKELILSSNRISYFLNNTFRPVTNLRNLDLSYNQLHSLGSEQFRGLRKLLSLHLRSNSLRTIPVRIFQDCRNLELLDLGYNRIRSLARNVFAGMIRLKELHLEHNQFSKLNLALFPRLVSLQNLYLQWNKISVIGQTMSWTWSSLQRLDLSGNEIEAFSGPSVFQCVPNLQRLNLDSNKLTFIGQEILDSWISLNDISLAGNIWECSRNICSLVNWLKSFKGLRENTIICASPKELQGVNVIDAVKNYSICGKSTTERFDLARALPKPTFKPKLPRPKHESKPPLPPTVGATEPGPETDADAEHISFHKIIAGSVALFLSVLVILLVIYVSWKRYPASMKQLQQRSLMRRHRKKKRQSLKQMTPSTQEFYVDYKPTNTETSEMLLNGTGPCTYNKSGSRECEIPLSMNVSTFLAYDQPTISYCGVHHELLSHKSFETNAQEDTMETHLETELDLSTITTAGRISDHKQQLA
